Where a chain is given by its changes, count along the chain named. Results are given in words; binding and its absence hold for the method and conditions named. Some results given as binding are weak or reduced against the parent protein; the word gives no strength. Blank lines part the entries; values can stand above or below the binder they belong to.
Assays:
[1] = biological target: 6SEN 33-Mer peptide BSA-conjugated (wheat) (UniProt P02769); assay: ELISA / Western blot, antigen coated at 10 µg/ml (Table 3)
[2] = biological target: 6SEN 33-Mer peptide BSA-conjugated (wheat) (UniProt P02769); assay: Western blot, 2 µg loaded, non-reducing (N) and reducing (R) buffer, primary Ab 0.5 µg/ml, IRDye 800CW goat anti mouse IgG 0.1 µg/ml [blot 14G11 Ab]
[3] = biological target: 6SEN 33-Mer peptide BSA-conjugated (wheat) (UniProt P02769); assay: Western blot, 2 µg loaded, non-reducing (N) and reducing (R) buffer, primary Ab 0.5 µg/ml, IRDye 800CW goat anti mouse IgG 0.1 µg/ml [blot 13F6 Ab]

The chains behind the UniProt entries cited, without tags or fusion partners. Where a name states a change or a piece, a line headed by the entry shows the natural chain unless it says otherwise.
UniProt P02769: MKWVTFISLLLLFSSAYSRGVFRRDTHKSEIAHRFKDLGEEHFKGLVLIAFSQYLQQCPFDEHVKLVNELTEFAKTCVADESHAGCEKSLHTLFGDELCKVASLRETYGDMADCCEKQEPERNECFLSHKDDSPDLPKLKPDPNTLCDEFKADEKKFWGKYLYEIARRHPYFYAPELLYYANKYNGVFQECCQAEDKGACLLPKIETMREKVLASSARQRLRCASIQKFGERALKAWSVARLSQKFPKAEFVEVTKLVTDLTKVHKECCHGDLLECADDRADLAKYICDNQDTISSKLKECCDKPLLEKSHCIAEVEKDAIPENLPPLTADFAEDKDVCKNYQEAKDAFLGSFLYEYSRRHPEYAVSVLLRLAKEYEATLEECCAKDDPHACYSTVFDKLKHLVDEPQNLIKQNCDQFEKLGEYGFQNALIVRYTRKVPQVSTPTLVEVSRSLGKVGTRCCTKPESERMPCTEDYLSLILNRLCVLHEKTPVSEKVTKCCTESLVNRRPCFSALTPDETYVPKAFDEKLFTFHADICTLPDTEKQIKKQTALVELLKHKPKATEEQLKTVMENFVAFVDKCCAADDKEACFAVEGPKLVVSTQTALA

binding [1]: binds
binding [2]: binds
B1: 14G11 monoclonal antibody (antibody, IgG1, V domains shown)
VH: QIQLVQSGPEMKKPGETVKIFCKASGYTLTDYSMHWVKQAPGKGLKWMGWINTETGEPTYADDFKGRCAFSLETSVSTAFLQINNLKNEDMGTYFCASSGAWFSYWGQGTLVTVSA
VL: DVLLTQTPLSLPVSLGDQASISCRSSQTIVQINGNTHLEWFLQKPGQSPKLLIYKVSNRFSGVPDRFSGSGSGTDFTLKISRVEAEDLGIYYCFQGSHVPFTFGSGTKLEIK

binding [1]: binds
binding [3]: binds
B2: 13F6 monoclonal antibody (antibody, IgG2b, V domains shown)
VH: QIQLVQSGPELKKPGETVKISCKASGYTFTDYSMHWVRQAPGKGLKWMGWINTETGEPTYADDFKGRFAFSLETSASTAYLQINNLKNEDTATHFCAPSVAWFAYWGQGTLVTVST
VL: B1 VL with L4M, P12S, T28S, I32S, I90V
